These are yes or no findings as the source states them, for the method shown. Binding seen in cells or lysates may run through a third protein. Some results given as binding are weak or reduced against the parent protein; the word gives no strength.
Target: PTEN (phosphatase and tensin homolog) (human (endogenous in PLC/PRF/5)) (UniProt P60484)
Test: co-IP; lysates from PLC/PRF/5 cells immunoprecipitated with antibodies against HSA, AFP or PTEN; SDS-PAGE; immunoblotted with anti-HSA, anti-AFP or anti-PTEN antibody

By UniProt entry, the sequences of proteins in these tests, tags left out.
UniProt P60484: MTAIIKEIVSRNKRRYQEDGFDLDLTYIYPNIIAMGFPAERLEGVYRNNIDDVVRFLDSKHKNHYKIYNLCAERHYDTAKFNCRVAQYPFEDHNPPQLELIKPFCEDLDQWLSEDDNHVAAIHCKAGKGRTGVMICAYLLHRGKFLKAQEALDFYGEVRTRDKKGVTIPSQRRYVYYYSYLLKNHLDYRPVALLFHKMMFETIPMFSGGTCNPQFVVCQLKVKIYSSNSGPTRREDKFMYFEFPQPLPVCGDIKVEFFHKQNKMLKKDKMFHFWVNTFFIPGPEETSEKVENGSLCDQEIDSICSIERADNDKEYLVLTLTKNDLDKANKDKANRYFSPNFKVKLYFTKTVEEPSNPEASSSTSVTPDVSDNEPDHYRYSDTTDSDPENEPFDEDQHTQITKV

- binding: binds
B1: Human alpha-fetoprotein (AFP) (protein, UniProt P02771 19-609)
chain: RTLHRNEYGIASILDSYQCTAEISLADLATIFFAQFVQEATYKEVSKMVKDALTAIEKPTGDEQSSGCLENQLPAFLEELCHEKEILEKYGHSDCCSQSEEGRHNCFLAHKKPTPASIPLFQVPEPVTSCEAYEEDRETFMNKFIYEIARRHPFLYAPTILLWAARYDKIIPSCCKAENAVECFQTKAATVTKELRESSLLNQHACAVMKNFGTRTFQAITVTKLSQKFTKVNFTEIQKLVLDVAHVHEHCCRGDVLDCLQDGEKIMSYICSQQDTLSNKITECCKLTTLERGQCIIHAENDEKPEGLSPNLNRFLGDRDFNQFSSGEKNIFLASFVHEYSRRHPQLAVSVILRVAKGYQELLEKCFQTENPLECQDKGEEELQKYIQESQALAKRSCGLFQKLGEYYLQNAFLVAYTKKAPQLTSSELMAITRKMAATAATCCQLSEDKLLACGEGAADIIIGHLCIRHEMTPVNPGVGQCCTSSYANRRPCFSSLVVDETYVPPAFSDDKFIFHKDLCQAQGVALQTMKQEFLINLVKQKPQITEEQLEAVIADFSGLLEKCCQGQEQEVCFAEEGQKLISKTRAALGV
